# Results published in PMC2702278.
# The chains behind the UniProt entries cited, without tags or fusion partners. Where a name states a change or a piece, a line headed by the entry shows the natural chain unless it says otherwise.
# UniProt Q96B97: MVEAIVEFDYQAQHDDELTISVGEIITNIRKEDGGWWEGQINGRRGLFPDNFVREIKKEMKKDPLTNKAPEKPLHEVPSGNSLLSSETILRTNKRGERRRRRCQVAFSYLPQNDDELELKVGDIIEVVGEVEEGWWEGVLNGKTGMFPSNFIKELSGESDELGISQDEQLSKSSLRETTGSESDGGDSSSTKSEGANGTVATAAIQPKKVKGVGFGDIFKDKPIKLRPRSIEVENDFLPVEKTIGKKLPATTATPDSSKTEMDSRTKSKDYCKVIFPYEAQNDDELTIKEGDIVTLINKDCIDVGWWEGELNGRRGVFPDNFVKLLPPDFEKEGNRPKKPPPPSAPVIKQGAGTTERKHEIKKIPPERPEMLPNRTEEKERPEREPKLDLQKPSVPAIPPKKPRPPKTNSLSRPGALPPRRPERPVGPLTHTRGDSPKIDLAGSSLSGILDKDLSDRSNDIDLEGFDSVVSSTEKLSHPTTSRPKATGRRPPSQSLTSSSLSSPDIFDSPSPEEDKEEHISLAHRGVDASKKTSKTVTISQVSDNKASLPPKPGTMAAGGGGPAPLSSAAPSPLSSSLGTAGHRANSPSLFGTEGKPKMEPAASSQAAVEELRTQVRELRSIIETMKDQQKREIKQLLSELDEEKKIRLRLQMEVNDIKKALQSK
# B1: Synaptojanin 2 (protein, UniProt O15056 1-1496)
# chain: MALSKGLRLLGRLGAEGDCSVLLEARGRDDCLLFEAGTVATLAPEEKEVIKGQYGKLTDAYGCLGELRLKSGGTSLSFLVLVTGCTSVGRIPDAEIYKITATDFYPLQEEAKEEERLIALKKILSSGVFYFSWPNDGSRFDLTVRTQKQGDDSSEWGNSFFWNQLLHVPLRQHQVSCCDWLLKIICGVVTIRTVYASHKQAKACLVSRVSCERTGTRFHTRGVNDDGHVSNFVETEQMIYMDDGVSSFVQIRGSVPLFWEQPGLQVGSHHLRLHRGLEANAPAFDRHMVLLKEQYGQQVVVNLLGSRGGEEVLNRAFKKLLWASCHAGDTPMINFDFHQFAKGGKLEKLETLLRPQLKLHWEDFDVFTKGENVSPRFQKGTLRMNCLDCLDRTNTVQSFIALEVLHLQLKTLGLSSKPIVDRFVESFKAMWSLNGHSLSKVFTGSRALEGKAKVGKLKDGARSMSRTIQSNFFDGVKQEAIKLLLVGDVYGEEVADKGGMLLDSTALLVTPRILKAMTERQSEFTNFKRIRIAMGTWNVNGGKQFRSNVLRTAELTDWLLDSPQLSGATDSQDDSSPADIFAVGFEEMVELSAGNIVNASTTNKKMWGEQLQKAISRSHRYILLTSAQLVGVCLYIFVRPYHVPFIRDVAIDTVKTGMGGKAGNKGAVGIRFQFHSTSFCFICSHLTAGQSQVKERNEDYKEITQKLCFPMGRNVFSHDYVFWCGDFNYRIDLTYEEVFYFVKRQDWKKLLEFDQLQLQKSSGKIFKDFHEGAINFGPTYKYDVGSAAYDTSDKCRTPAWTDRVLWWRKKHPFDKTAGELNLLDSDLDVDTKVRHTWSPGALQYYGRAELQASDHRPVLAIVEVEVQEVDVGARERVFQEVSSFQGPLDATVVVNLQSPTLEEKNEFPEDLRTELMQTLGSYGTIVLVRINQGQMLVTFADSHSALSVLDVDGMKVKGRAVKIRPKTKDWLKGLREEIIRKRDSMAPVSPTANSCLLEENFDFTSLDYESEGDILEDDEDYLVDEFNQPGVSDSELGGDDLSDVPGPTALAPPSKSPALTKKKQHPTYKDDADLVELKRELEAVGEFRHRSPSRSLSVPNRPRPPQPPQRPPPPTGLMVKKSASDASISSGTHGQYSILQTARLLPGAPQQPPKARTGISKPYNVKQIKTTNAQEAEAAIRCLLEARGGASEEALSAVAPRDLEASSEPEPTPGAAKPETPQAPPLLPRRPPPRVPAIKKPTLRRTGKPLSPEEQFEQQTVHFTIGPPETSVEAPPVVTAPRVPPVPKPRTFQPGKAAERPSHRKPASDEAPPGAGASVPPPLEAPPLVPKVPPRRKKSAPAAFHLQVLQSNSQLLQGLTYNSSDSPSGHPPAAGTVFPQGDFLSTSSATSPDSDGTKAMKPEAAPLLGDYQDPFWNLLHHPKLLNNTWLSKSSDPLDSGTRSPKRDPIDPVSAGASAAKAELPPDHEHKTLGHWVTISDQEKRTALQVFDPLAKT
# B2: ARAP1 (protein, UniProt Q96P48 1-1450)
# chain: MAEAGDAALSVAEWLRALHLEQYTGLFEQHGLVWATECQGLSDTRLMDMGMLLPGHRRRILAGLLRAHTSPAPAPRPTPRPVPMKRHIFRSPPVPATPPEPLPTTTEDEGLPAAPPIPPRRSCLPPTCFTTPSTAAPDPVLPPLPAKRHLAELSVPPVPPRTGPPRLLVSLPTKEEESLLPSLSSPPQPQSEEPLSTLPQGPPQPPSPPPCPPEIPPKPVRLFPEFDDSDYDEVPEEGPGAPARVMTKKEEPPPSRVPRAVRVASLLSEGEELSGDDQGDEEEDDHAYEGVPNGGWHTSSLSLSLPSTIAAPHPMDGPPGGSTPVTPVIKAGWLDKNPPQGSYIYQKRWVRLDTDHLRYFDSNKDAYSKRFISVACISHVAAIGDQKFEVITNNRTFAFRAESDVERKEWMQALQQAMAEQRARARLSSAYLLGVPGSEQPDRAGSLELRGFKNKLYVAVVGDKVQLYKNLEEYHLGIGITFIDMSVGNVKEVDRRSFDLTTPYRIFSFSADSELEKEQWLEAMQGAIAEALSTSEVAERIWAAAPNRFCADCGAPQPDWASINLCVVICKRCAGEHRGLGAGVSKVRSLKMDRKVWTETLIELFLQLGNGAGNRFWAANVPPSEALQPSSSPSTRRCHLEAKYREGKYRRYHPLFGNQEELDKALCAAVTTTDLAETQALLGCGAGINCFSGDPEAPTPLALAEQAGQTLQMEFLRNNRTTEVPRLDSMKPLEKHYSVVLPTVSHSGFLYKTASAGKLLQDRRAREEFSRRWCVLGDGVLSYFENERAVTPNGEIRASEIVCLAVPPPDTHGFEHTFEVYTEGERLYLFGLESAEQAHEWVKCIAKAFVPPLAEDLLARDFERLGRLPYKAGLSLQRAQEGWFSLSGSELRAVFPEGPCEEPLQLRKLQELSIQGDSENQVLVLVERRRTLYIQGERRLDFMGWLGAIQKAAASMGDTLSEQQLGDSDIPVIVYRCVDYITQCGLTSEGIYRKCGQTSKTQRLLESLRQDARSVHLKEGEQHVDDVSSALKRFLRDLPDGLFTRAQRLTWLEASEIEDEEEKVSRYRELLVRLPPVNRATVKALISHLYCVQCFSDTNQMNVHNLAIVFGPTLFQTDGQDYKAGRVVEDLINHYVVVFSVDEEELRKQREEITAIVKMRVAGTASGTQHAGDFICTVYLEEKKAETEQHIKVPASMTAEELTLEILDRRNVGIREKDYWTCFEVNEREEAERPLHFAEKVLPILHGLGTDSHLVVKKHQAMEAMLLYLASRVGDTKHGMMKFREDRSLLGLGLPSGGFHDRYFILNSSCLRLYKEVRSQRPWSGAPETSHRPEKEWPIKSLKVYLGVKKKLRPPTCWGFTVVHETEKHEKQQWYLCCDTQMELREWFATFLFVQHDGLVWPSEPSRVSRAVPEVRLGSVSLIPLRGSENEMRRSVAAFTADPLSLLRNV
# B3: RICH1 (protein, UniProt Q68EM7 1-881)
# chain: MKKQFNRMKQLANQTVGRAEKTEVLSEDLLQIERRLDTVRSICHHSHKRLVACFQGQHGTDAERRHKKLPLTALAQNMQEASTQLEDSLLGKMLETCGDAENQLALELSQHEVFVEKEIVDPLYGIAEVEIPNIQKQRKQLARLVLDWDSVRARWNQAHKSSGTNFQGLPSKIDTLKEEMDEAGNKVEQCKDQLAADMYNFMAKEGEYGKFFVTLLEAQADYHRKALAVLEKTLPEMRAHQDKWAEKPAFGTPLEEHLKRSGREIALPIEACVMLLLETGMKEEGLFRIGAGASKLKKLKAALDCSTSHLDEFYSDPHAVAGALKSYLRELPEPLMTFNLYEEWTQVASVQDQDKKLQDLWRTCQKLPPQNFVNFRYLIKFLAKLAQTSDVNKMTPSNIAIVLGPNLLWARNEGTLAEMAAATSVHVVAVIEPIIQHADWFFPEEVEFNVSEAFVPLTTPSSNHSFHTGNDSDSGTLERKRPASMAVMEGDLVKKESFGVKLMDFQAHRRGGTLNRKHISPAFQPPLPPTDGSTVVPAGPEPPPQSSRAESSSGGGTVPSSAGILEQGPSPGDGSPPKPKDPVSAAVPAPGRNNSQIASGQNQPQAAAGSHQLSMGQPHNAAGPSPHTLRRAVKKPAPAPPKPGNPPPGHPGGQSSSGTSQHPPSLSPKPPTRSPSPPTQHTGQPPGQPSAPSQLSAPRRYSSSLSPIQAPNHPPPQPPTQATPLMHTKPNSQGPPNPMALPSEHGLEQPSHTPPQTPTPPSTPPLGKQNPSLPAPQTLAGGNPETAQPHAGTLPRPRPVPKPRNRPSVPPPPQPPGVHSAGDSSLTNTAPTASKIVTDSNSRVSEPHRSIFPEMHSDSASKDVPGRILLDIDNDTESTAL
# Target: GST-fusion SH3A domain of Ruk/CIN85 (UniProt Q96B97)
# Assay: affinity purification with mass spectrometry; GST-fusion SH3 domain (about 10 μg on 40 μl Glutathione Sepharose 4B) incubated 4 h at 4°C with HeLa lysate pre-cleared on GST beads; 20 mM Tris pH 7.5, 150 mM NaCl, 5 mM EDTA, 5% glycerol, 0.5% Triton X-100 (washes 0.1%); SDS-PAGE, in-gel trypsin digestion, LC-MS/MS; hits also found with GST alone removed; only the target purified
row,binding,Binder
1,binds,B1
2,binds,B2
3,binds,B3

# Target: GST-fusion SH3B domain of Ruk/CIN85 (UniProt Q96B97)
# Assay: as above
row,binding,Binder
1,binds,B1
2,binds,B2
3,binds,B3

# Target: GST-fusion SH3C domain of Ruk/CIN85 (UniProt Q96B97)
# Assay: as above
row,binding,Binder
1,binds,B1
2,binds,B2
3,binds,B3

# Results are given in words; binding and its absence hold for the method and conditions named. In cells and extracts the contact can be indirect. These calls come from enrichment with a bait or labelling near it, and not all partners need be listed.
